The text below walks through data of publication PMC4945878.

By UniProt entry, the sequences of proteins in these tests, tags left out. Residues count along the entry.
UniProt Q9HAW4, 1-350: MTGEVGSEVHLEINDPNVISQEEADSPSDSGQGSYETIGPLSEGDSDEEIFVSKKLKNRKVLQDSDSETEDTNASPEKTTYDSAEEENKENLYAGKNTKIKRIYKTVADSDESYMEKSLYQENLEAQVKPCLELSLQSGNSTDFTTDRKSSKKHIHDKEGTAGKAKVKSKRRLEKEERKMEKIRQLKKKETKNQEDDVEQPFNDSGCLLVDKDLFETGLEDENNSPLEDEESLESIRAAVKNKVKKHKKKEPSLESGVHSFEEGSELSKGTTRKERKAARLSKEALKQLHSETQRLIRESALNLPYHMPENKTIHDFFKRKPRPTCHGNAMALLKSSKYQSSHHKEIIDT

For data set [1], the target named is Claspin wild-type full-length (human) (UniProt Q9HAW4). Description: filter binding. The settings on record: 20 mM K-glutamate, 8% glycerol, 30 C, 1 h, recombinant protein, residues 1-1339, protein details: Flag (C-term), label: 32P end label on 32mer-dT32 strand.
For data set [2], the target named is Claspin #2 (human) (UniProt Q9HAW4). Description: EMSA. As to conditions: aa1-350 can bind DNA with high affinity; 10 mM Tris-HCl pH 7.5, 40 ug/ml BSA, 1 mM DTT; 0.5 mM for filter binding), 20 mM K-glutamate, 8% glycerol, 30 C, 1 h; recombinant protein; residues 1-350; protein details: Flag (C-term); label: 32P end label on 32mer-dT32 strand. (In EMSA bound probe runs differently from free probe, usually more slowly.)

Construct, isoform or probe ends are uncertain for at least one entry. For part of these data: At least one verdict rests on a figure or table, not on a statement of the authors.

As for “AACGTCGTGACTGGGCACTTGATCGGCCAACCTTTTTTTTTTTTTTTTTTTTTTTTTTTTTTTT / TTTTTTTTTTTTTTTTTTTTTTTTTTTTTTTTGGTTGGCCGATCAAGTGCCCAGTCACGACGTT [Y-fork DNA]”, the binding signal (% of binding without salt wash) is 20 in data set [1] (150 mM KCl wash (legend says NaCl), 2 pmol protein; 10 mM Tris-HCl pH 7.5, 40 ug/ml BSA, 1 mM DTT; 0.5 mM for filter binding)) and below 10 in data set [1] (250 mM KCl wash (legend says NaCl), 2 pmol protein; 10 mM Tris-HCl pH 7.5, 40 ug/ml BSA, 1 mM DTT; 0.5 mM for filter binding)). For the same sequence, in data set [2], the binding result is given as “binds”.
